Results are given in words; binding and its absence hold for the method and conditions named. Binding seen in cells or lysates may run through a third protein. Some results given as binding are weak or reduced against the parent protein; the word gives no strength.
Molecular target: T1, endogenous MDM4 (human (endogenous in NB-1691 and LA1-55N)), O15151
T1 chain: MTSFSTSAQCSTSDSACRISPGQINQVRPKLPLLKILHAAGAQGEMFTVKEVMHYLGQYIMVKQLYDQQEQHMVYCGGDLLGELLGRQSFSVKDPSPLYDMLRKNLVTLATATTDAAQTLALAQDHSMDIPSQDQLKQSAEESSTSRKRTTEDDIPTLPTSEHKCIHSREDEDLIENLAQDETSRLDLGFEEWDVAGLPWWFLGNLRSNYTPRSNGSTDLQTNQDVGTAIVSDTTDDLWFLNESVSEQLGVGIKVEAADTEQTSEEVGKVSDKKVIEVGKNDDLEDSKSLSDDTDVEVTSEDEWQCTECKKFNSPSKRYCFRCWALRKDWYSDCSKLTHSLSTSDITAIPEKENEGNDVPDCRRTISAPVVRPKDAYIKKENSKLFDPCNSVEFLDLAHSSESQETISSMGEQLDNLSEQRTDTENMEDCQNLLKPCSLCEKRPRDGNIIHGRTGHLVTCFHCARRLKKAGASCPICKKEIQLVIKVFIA
Assay: cross-linking; DSS (0.25, 0.5, 1 mM) on suspended NB-1691 and LA1-55N cells, 30 min at room temperature, quenched with TBS, lysed, Western blot of endogenous proteins; NB-1691 also with or without XIAP IRES RNA
Details: remark: other sources report otherwise

binding: binds
B1: endogenous MDM4, O15151 1-490 (protein)
chain: MTSFSTSAQCSTSDSACRISPGQINQVRPKLPLLKILHAAGAQGEMFTVKEVMHYLGQYIMVKQLYDQQEQHMVYCGGDLLGELLGRQSFSVKDPSPLYDMLRKNLVTLATATTDAAQTLALAQDHSMDIPSQDQLKQSAEESSTSRKRTTEDDIPTLPTSEHKCIHSREDEDLIENLAQDETSRLDLGFEEWDVAGLPWWFLGNLRSNYTPRSNGSTDLQTNQDVGTAIVSDTTDDLWFLNESVSEQLGVGIKVEAADTEQTSEEVGKVSDKKVIEVGKNDDLEDSKSLSDDTDVEVTSEDEWQCTECKKFNSPSKRYCFRCWALRKDWYSDCSKLTHSLSTSDITAIPEKENEGNDVPDCRRTISAPVVRPKDAYIKKENSKLFDPCNSVEFLDLAHSSESQETISSMGEQLDNLSEQRTDTENMEDCQNLLKPCSLCEKRPRDGNIIHGRTGHLVTCFHCARRLKKAGASCPICKKEIQLVIKVFIA

From PMC4379586
